# Primary screen of a compound library

The filed quantity is “Percent Effect” (%). The record does not define 0% and 100%; most values in the screen are far below 50% and negative numbers occur (in some assays of this library far below -100). The compounds are a random part of those screened. Two or more numbers in one place are separate tests of the same structure; such repeats can differ widely.

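Viability assay of Plasmodium falciparum sporozoites; the read-out is not stated. The concentration is filed as 10 mM, unlikely as a test dose, so the dose is not known. Higher reads as lower viability (inferred: compounds with an IC50 in retests scored well above the rest). Strong results were mostly tested again. About 34,000 compounds were tested under these conditions; 0.84% (about 280) showed 50% or more at least once.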

Cn1ccnc1C(O)c1ccccc1N1CCN(Cc2ccsc2)CC1 (stereo unspecified) gave 10.51%.
Cc1nc(CN(Cc2ccccc2)C2CCS(=O)(=O)C2)oc1C (stereo unspecified) gave 13.28%.
COc1ccc(N2CCN(Cc3nc(CSC)no3)CC2=O)cc1 gave -11.28%.
O=S(=O)(Cc1cccc2cccnc12)NC(CO)c1ccco1 (stereo unspecified) gave 8.686%.
Cc1nn(C)c(C)c1C1COCCN1c1ncncc1Br (stereo unspecified) gave 1.225%.
O=C(c1ccn[nH]1)N1CCCC(n2cncn2)C1 (stereo unspecified) gave -33.65%.
COc1c(C)cnc(CN2CCOC(CNc3cccnn3)C2)c1C (stereo unspecified) gave 7.096%.
CO[C@@H]1CN(c2ccccc2)S(=O)(=O)[C@@]12CCN(Cc1cncs1)C2 gave -33.24%.
CCc1cccc(N2CCC(NC(=O)c3ccncc3)CC2)c1 gave -0.2692%.
Cc1cccc(Nc2cc(C)nc(C3CCCCN3CC(N)=O)n2)n1 (stereo unspecified) gave -2.008%.
Cc1ccc(C2COCCN2C(=O)c2ccc(C#N)cc2)o1 (stereo unspecified) gave 3.676%.
CCOc1ccccc1C1=CCN(C(=O)C2CCN(C)C(=O)C2)CC1 (stereo unspecified) gave -8.322%.
CNC(=O)NC(=O)CCN1CCN(c2nccs2)CC1 gave 16.65%.
[H][C@]12CC[C@](O)(CC1)C(CO)N2C(=O)c1ccco1 (stereo partly specified) gave -51.77%.
CC(Cn1cccn1)NC(=O)N1CCN(Cc2ccco2)CC1 (stereo unspecified) gave -3.026%.
CCC(CC)NC(=O)c1ccc2nnc(C3CCN(S(C)(=O)=O)C3)n2c1 (stereo unspecified) gave -18.44%.
N#CCCn1nc(C(F)(F)F)c2c1CCC2 gave 2.775%.
O=C(O)C(F)(F)F.[H][C@@]12CCCO[C@]1([H])[C@H](NC(=O)c1nccn1C)CN2Cc1ccc(F)cc1 gave 0.3503%.
CCc1nnc(Nc2cc(C)nc(C3CN(C(=O)C(C)C)CCO3)c2)s1 (stereo unspecified) gave 11.1%.
COc1ccc(CNC2CCN(c3ccccc3)C2)cc1O (stereo unspecified) gave 7.771%.
COCC1c2c(cnn2CC2CC2)CCN1Cc1ccc(OC)cc1 (stereo unspecified) gave 6.602%.
Cc1cc(C)n(Cc2cc(C(=O)N3CCCC3c3ccccn3)n[nH]2)n1 (stereo unspecified) gave -11.81%.
O=C(NCc1ccccn1)Nc1cc(C(F)(F)F)c[nH]c1=O gave -3.759%.
COC1COC2(CCN(CC3CC3)CC2)C1.O=C(O)C(F)(F)F (stereo unspecified) gave -1.688%.
CC(=O)NCc1nccnc1C1CCN(C(=O)c2cc[nH]n2)CC1 gave 1.279%.
[H][C@@]12CO[C@@H](CN3CCN(C)CC3)[C@]1([H])CCN(Cc1ccncc1)C2 gave -5.175%.
Cc1cc(C)nc(C2CCN(C(=O)c3cnc(N(C)C)nc3)C2)n1 (stereo unspecified) gave -0.8427%.
CCCOc1cccc(C(=O)Oc2cc(=O)n3cccc(C)c3n2)c1 gave -8.81%.
Cc1nc(COC[C@H]2CCC[C@]23CN(CC2CC2)CCO3)cs1 gave 8.918%.
Cc1ccc(-c2cc(C(=O)N(C)Cc3noc4c3CCCC4)[nH]n2)s1 gave -2.865%.
CC/C=C(\C)CN1CCC(CNC(=O)c2ccnc(N)c2)C1 (stereo unspecified) gave -6.667%.
Cc1ccc(C(=O)N2CCc3ncc(Cn4cccn4)n3CC2)o1 gave 3.71%.
O=C(Cc1ccsc1)N1CCN(CC2CC2)c2ncccc2C1.O=C(O)C(F)(F)F gave 5.122%.
O=C(O)C(F)(F)F.O=C(O)C(F)(F)F.O=C(O)C(F)(F)F.[H][C@@]12CN(Cc3ccncc3)C[C@@]1([H])N(Cc1ccncc1)C(=O)CO2 gave -16.79%.
CC(C)(C)C(=O)N1CCC(c2nc(O)cc(-c3ccccn3)n2)CC1 gave -9.123%.
CC(CC#N)n1ccc(C(F)(F)F)n1 (stereo unspecified) gave 1.627%.
Cc1cc(CN2CCC3(CC2)COC(COCC2CC2)C3)no1.O=C(O)C(F)(F)F (stereo unspecified) gave 4.557%.
O=C(CC1CCCC1)N1CCC(c2nnc(-c3ccccn3)o2)CC1 gave 7.6%.
Cc1cc(C)c(CNC(=O)Cc2ccc3c(c2)CCCC3)c(=O)[nH]1 gave 49.97% & 36.63% & 32.06%.
CN(C)[C@@H]1CCN(C(=O)c2cccn2C)[C@H]1Cc1cnn(C)c1.O=C(O)C(F)(F)F gave 0.6014%.
Cc1cc(C)cc(C2(C(=O)NCC3CCN(CC(F)(F)F)C3)CC2)c1 (stereo unspecified) gave 3.695%.
Cc1cc(C2CCCN(C(=O)c3cnn(C)c3)C2)ccn1 (stereo unspecified) gave -5.569%.
[H][C@@]12C[C@H](C(=O)NCC(C)C)[C@@]([H])(CN(C(=O)NCCc3ccccc3)C1)O2 gave -8.273%.
O=C(O)C(F)(F)F.O=C(O)C(F)(F)F.[H][C@@]12CN(Cc3cnn(C)c3)C[C@]1([H])OCCN2Cc1c(C)noc1C gave -4.084%.
Cc1ccc(-c2nc(CN3CCOC(Cn4cncn4)C3)cs2)o1 (stereo unspecified) gave -7.397% & 5.514%.

The first 3 entries again:

{"compound": "Cn1ccnc1C(O)c1ccccc1N1CCN(Cc2ccsc2)CC1", "stereo": "stereo unspecified", "percent effect": 10.51}
{"compound": "Cc1nc(CN(Cc2ccccc2)C2CCS(=O)(=O)C2)oc1C", "stereo": "stereo unspecified", "percent effect": 13.28}
{"compound": "COc1ccc(N2CCN(Cc3nc(CSC)no3)CC2=O)cc1", "percent effect": -11.28}

From ChEMBL document CHEMBL3988442, “University of Dundee, Small-Polar-MMV Screening Library” (2021).